Some results were stated once for a whole list of compounds, not compound by compound.
Columns and labels:
[1] = test system: Resistant Plutella xylostella R4 (RyR mutation G4946E); experiment: Resistant Plutella xylostella R4 (Diamond back moth) larvicide L1, feeding/contact; type: in vivo; conditions: at 50 ppm or below; artificial diet in 24-well plates, eggs/L1, mortality assessed 8 days after infestation
Protocol: Resistant Plutella xylostella R4 (Diamond back moth) larvicide L1, feeding/contact 24-well microtiter plates with artificial diet were treated with aqueous test solutions prepared from 10,000 ppm DMSO stock solutions by pipetting. After drying, around 30 Plutella eggs were pipetted through a plastic stencil onto a gel blotting paper and the plate was closed with it. The samples were assessed for mortality in comparison to untreated samples 8 days after infestation. CTPR was used as standard and a resistance factor of 242 was obtained for this strain
Plutella xylostella resistant strain R4 originated in the lab in 2021 from crossing the R1 strain with a lab-reared susceptible P. xylostella strain (SUS). R4 can be reared and tested on artificial diet and also carries the RyR mutation G4946E conferring resistance to diamides. The strain is selected approximately every two weeks with chlorantraniliprole.

[2] = test system: Resistant Plutella xylostella R1 (G4946E resistance mutation); experiment: Resistant Plutella xylostella R1 (Diamond back moth) larvicide L3, feeding/contact; type: in vivo; conditions: at 50 ppm or below; sprayed Chinese cabbage leaves, L3 larvae, mortality and growth regulation assessed 4 days after infestation
Protocol: Resistant Plutella xylostella R1 (Diamond back moth) larvicide L3, feeding/contact Chinese cabbage plants were sprayed with diluted test solutions in an application chamber. Cut off leaves were placed into petri dishes with wetted filter paper and infested 1 day after application with 10 L3 multi-resistant Plutella xylostella larvae having the G4946E resistance mutation. Samples were assessed 4 days after infestation for mortality and growth regulation. CTPR was used as standard and a resistance factor of 146 was obtained for this strain.
Plutella xylostella resistant strain R1 originally collected from Taiwan in 2012 that carries the RyR mutation G4946E conferring resistance to diamides. The strain is reared on cabbage plants (Brassica oleracea) and selected approximately every two weeks with chlorantraniliprole.

Structure (SMILES)	control of the resistant strain of Plutella xylostella R4 [1]	control of the resistant strain of Plutella xylostella R1 [2]
COc1cc(C(=O)Nc2c(C)cc3cn[nH]c3c2C(N)=O)n(-c2ncccc2Cl)n1 [Compound P1, 6-[[2-(3-chloro-2-pyridyl)-5-methoxy-pyrazole-3-carbonyl]amino]-5-methyl-1H-indazole-7-carboxamide]	at least 80%	–
Cc1cc2cn[nH]c2c(C(N)=O)c1NC(=O)c1cc(OCC(F)(F)F)nn1-c1ncccc1Cl [Compound P2, 6-[[2-(3-chloro-2-pyridyl)-5-(2,2,2-trifluoroethoxy)pyrazole-3-carbonyl]amino]-5-methyl-1H-indazole-7-carboxamide]	at least 80%	at least 80%
Cc1cc2cn[nH]c2c(C(N)=O)c1NC(=O)c1cc(C(F)F)nn1-c1ncccc1Cl [Compound P3, 6-[[2-(3-chloro-2-pyridyl)-5-(difluoromethyl)pyrazole-3-carbonyl]amino]-5-methyl-1H-indazole-7-carboxamide]	–	at least 80%
Cc1cc2cn[nH]c2c(C(N)=O)c1NC(=O)c1cc(C(F)(F)F)nn1-c1ncccc1Cl [Compound P4, 6-[[2-(3-chloro-2-pyridyl)-5-(trifluoromethyl)pyrazole-3-carbonyl]amino]-5-methyl-1H-indazole-7-carboxamide]	at least 80%	at least 80%
Cc1cc2cn[nH]c2c(C(N)=O)c1NC(=O)c1cc(OCC(F)(F)C(F)(F)F)nn1-c1ncccc1Cl [Compound P6, 6-[[2-(3-chloro-2-pyridyl)-5-(2,2,3,3,3-pentafluoropropoxy)pyrazole-3-carbonyl]amino]-5-methyl-1H-indazole-7-carboxamide]	–	at least 80%
Cc1cc2nn[nH]c2c(C(N)=O)c1NC(=O)c1cc(C(F)(F)F)nn1-c1ncccc1Cl [Compound P7, 5-[[2-(3-chloro-2-pyridyl)-5-(trifluoromethyl)pyrazole-3-carbonyl]amino]-6-methyl-3H-benzotriazole-4-carboxamide]	–	at least 80%
Cc1cc2cn(Cc3ccccc3)nc2c(C(N)=O)c1NC(=O)c1cc(C(F)(F)F)nn1-c1ncccc1Cl [Compound P12, 2-benzyl-6-[[2-(3-chloro-2-pyridyl)-5-(trifluoromethyl)pyrazole-3-carbonyl]amino]-5-methyl-indazole-7-carboxamide]	–	at least 80%
Cc1cc2cn(Cc3ccccc3)nc2c(C(N)=O)c1NC(=O)c1cc(OCC(F)(F)F)nn1-c1ncccc1Cl [Compound P13, 2-benzyl-6-[[2-(3-chloro-2-pyridyl)-5-(2,2,2-trifluoroethoxy)pyrazole-3-carbonyl]amino]-5-methyl-indazole-7-carboxamide]	–	at least 80%
NC(=O)c1c(NC(=O)c2cc(C(F)(F)F)nn2-c2ncccc2Cl)c(Cl)cc2cn[nH]c12 [Compound P16, 5-chloro-6-[[2-(3-chloro-2-pyridyl)-5-(trifluoromethyl)pyrazole-3-carbonyl]amino]-1H-indazole-7-carboxamide]	at least 80%	at least 80%
Cc1cc2c(c(C(N)=O)c1NC(=O)c1cc(C(F)(F)F)nn1-c1ncccc1Cl)OC(F)(F)O2 [Compound P19, N-(4-carbamoyl-2,2-difluoro-6-methyl-1,3-benzodioxol-5-yl)-2-(3-chloro-2-pyridyl)-5-(trifluoromethyl)pyrazole-3-carboxamide]	–	at least 80%
Cc1cc2c(c(C(N)=O)c1NC(=O)c1cc(Cn3ncc(C(F)(F)F)n3)nn1-c1ncccc1Cl)OC(F)(F)O2 [Compound P21, N-(4-carbamoyl-2,2-difluoro-6-methyl-1,3-benzodioxol-5-yl)-2-(3-chloro-2-pyridyl)-5-[[4-(trifluoromethyl)triazol-2-yl]methyl]pyrazole-3-carboxamide]	at least 80%	at least 80%
Cc1cc2c(c(C(N)=O)c1NC(=O)c1cc(Cn3cc(C(F)(F)F)nn3)nn1-c1ncccc1Cl)OC(F)(F)O2 [Compound P22, N-(4-carbamoyl-2,2-difluoro-6-methyl-1,3-benzodioxol-5-yl)-2-(3-chloro-2-pyridyl)-5-[[4-(trifluoromethyl)triazol-1-yl]methyl]pyrazole-3-carboxamide]	–	at least 80%
Cc1cc2c(c(C(N)=O)c1NC(=O)c1cc(Cn3nnc(-c4ccc(C(F)(F)F)cc4)n3)nn1-c1ncccc1Cl)OC(F)(F)O2 [Compound P23, N-(4-carbamoyl-2,2-difluoro-6-methyl-1,3-benzodioxol-5-yl)-2-(3-chloro-2-pyridyl)-5-[[5-[4-(trifluoromethyl)phenyl]tetrazol-2-yl]methyl]pyrazole-3-carboxamide]	at least 80%	at least 80%
Cc1cc2c(c(C(N)=O)c1NC(=O)c1cc(Cn3nnc(C(F)(F)F)n3)nn1-c1ncccc1Cl)OC(F)(F)O2 [Compound P24, N-(4-carbamoyl-2,2-difluoro-6-methyl-1,3-benzodioxol-5-yl)-2-(3-chloro-2-pyridyl)-5-[[5-(trifluoromethyl)tetrazol-2-yl]methyl]pyrazole-3-carboxamide]	at least 80%	at least 80%
